# According to PMC4823074:
# By UniProt entry, the sequences of proteins in these tests, tags left out.
# UniProt Q00987: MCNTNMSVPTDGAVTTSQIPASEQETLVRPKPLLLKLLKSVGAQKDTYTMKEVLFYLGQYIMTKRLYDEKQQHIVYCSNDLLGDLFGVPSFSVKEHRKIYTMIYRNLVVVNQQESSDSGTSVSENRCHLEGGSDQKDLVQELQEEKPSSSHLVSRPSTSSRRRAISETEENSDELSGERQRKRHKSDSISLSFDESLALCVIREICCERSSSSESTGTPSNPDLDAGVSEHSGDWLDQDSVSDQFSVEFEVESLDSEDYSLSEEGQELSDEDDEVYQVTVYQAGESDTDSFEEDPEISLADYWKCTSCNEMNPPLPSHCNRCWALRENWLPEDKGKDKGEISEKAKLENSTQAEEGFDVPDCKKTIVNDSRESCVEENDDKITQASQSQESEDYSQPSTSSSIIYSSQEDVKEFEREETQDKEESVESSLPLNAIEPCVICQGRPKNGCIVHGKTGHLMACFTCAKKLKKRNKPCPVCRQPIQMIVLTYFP
# UniProt O95155: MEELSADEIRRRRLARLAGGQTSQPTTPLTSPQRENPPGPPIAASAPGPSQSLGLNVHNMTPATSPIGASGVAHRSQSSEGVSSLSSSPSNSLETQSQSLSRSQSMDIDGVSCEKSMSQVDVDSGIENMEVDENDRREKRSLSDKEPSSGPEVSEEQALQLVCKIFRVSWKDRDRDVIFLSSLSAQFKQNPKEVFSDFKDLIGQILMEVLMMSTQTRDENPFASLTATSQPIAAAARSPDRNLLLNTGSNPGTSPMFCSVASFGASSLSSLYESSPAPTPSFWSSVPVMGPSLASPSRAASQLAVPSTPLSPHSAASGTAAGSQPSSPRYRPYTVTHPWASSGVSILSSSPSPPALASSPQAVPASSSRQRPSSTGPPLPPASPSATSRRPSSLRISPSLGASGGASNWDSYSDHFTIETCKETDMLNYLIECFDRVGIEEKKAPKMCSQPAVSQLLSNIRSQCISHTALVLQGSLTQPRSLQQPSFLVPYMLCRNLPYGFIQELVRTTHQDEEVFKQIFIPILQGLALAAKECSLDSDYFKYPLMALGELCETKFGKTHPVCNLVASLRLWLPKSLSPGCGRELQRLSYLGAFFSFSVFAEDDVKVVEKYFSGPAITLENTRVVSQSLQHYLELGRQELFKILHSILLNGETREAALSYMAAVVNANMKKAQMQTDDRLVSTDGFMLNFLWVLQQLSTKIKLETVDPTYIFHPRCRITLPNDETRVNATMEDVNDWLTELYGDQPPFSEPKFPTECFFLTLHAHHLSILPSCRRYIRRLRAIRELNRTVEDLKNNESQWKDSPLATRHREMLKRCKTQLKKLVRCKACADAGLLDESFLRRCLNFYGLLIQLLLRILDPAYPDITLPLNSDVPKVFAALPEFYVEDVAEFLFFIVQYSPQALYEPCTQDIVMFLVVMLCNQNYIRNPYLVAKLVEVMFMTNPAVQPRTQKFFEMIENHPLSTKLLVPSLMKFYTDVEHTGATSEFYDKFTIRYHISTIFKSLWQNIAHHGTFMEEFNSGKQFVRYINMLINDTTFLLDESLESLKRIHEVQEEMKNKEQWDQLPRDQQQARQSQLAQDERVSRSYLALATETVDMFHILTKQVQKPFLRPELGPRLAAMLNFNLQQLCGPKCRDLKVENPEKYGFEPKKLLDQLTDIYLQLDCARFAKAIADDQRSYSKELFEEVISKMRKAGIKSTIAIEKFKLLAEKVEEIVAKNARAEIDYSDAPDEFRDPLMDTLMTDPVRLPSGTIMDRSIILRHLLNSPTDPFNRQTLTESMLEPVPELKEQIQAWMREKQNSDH
# Results are given in words; binding and its absence hold for the method and conditions named. In cells and extracts the contact can be indirect. Some results given as binding are weak or reduced against the parent protein; the word gives no strength.
# Molecular target: Hdm2 (human (endogenous in MCF7)) (UniProt Q00987)
# Assay: co-IP; endogenous proteins of MCF7 cell extracts; cells with or without 6 Gy IR (harvested 3 h after IR), MG132 in the reciprocal IP; lysis buffer 50 mM Tris-HCl pH 7.4, 1 mM EDTA, 150 mM NaCl, 0.5% NP40; protein A/G Plus-agarose, 4°C; western blot
substance,measurement,value
UBE4B (from UniProt O95155 1-1302) (enzyme),binding,binds
